The source of these data is PMC6506688.

Results are given in words; binding and its absence hold for the method and conditions named. In cells and extracts the contact can be indirect. Binding calls can cover weak binding; strength is not graded here. Sequences can lack the tags named with a protein.

The assay addresses FLAG-tagged FBXO11 (F box protein O11). As to the kind of experiment: co-IP; HEK293T cells transfected with epitope-tagged plasmids; whole-cell extracts immunoprecipitated with FLAG antibody overnight at 4°C, protein A and G agarose beads, five washes with lysis buffer, immunoblotting.

B1: MYC-tagged AIP (aryl hydrocarbon receptor interacting protein) (protein, UniProt O00170 1-330)
chain: MADIIARLREDGIQKRVIQEGRGELPDFQDGTKATFHYRTLHSDDEGTVLDDSRARGKPMELIIGKKFKLPVWETIVCTMREGEIAQFLCDIKHVVLYPLVAKSLRNIAVGKDPLEGQRHCCGVAQMREHSSLGHADLDALQQNPQPLIFHMEMLKVESPGTYQQDPWAMTDEEKAKAVPLIHQEGNRLYREGHVKEAAAKYYDAIACLKNLQMKEQPGSPEWIQLDQQITPLLLNYCQCKLVVEEYYEVLDHCSSILNKYDDNVKAYFKRGKAHAAVWNAQEAQADFAKVLELDPALAPVVSRELRALEARIRQKDEEDKARFRGIFSH
B1: the binding result was “binds”.
